PubChem BioAssay AID1159579 | Peter MacCallum Cancer Centre, 2015

Assay: 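Retest candidate lymphatic endothelial migration regulators using several independent siRNAs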 (follow-up of hits)
System: human dermal lymphatic endothelial cells
Knock-down reagent: single siRNA against human genes, 25 nM
Measured: 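Scratch wound imaging measuring area filled by moving cells plus nuclei number, averaged over two wells and scaled to mock-transfected controls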
Reading the numbers: migration relative to mock: higher = more migration into the scratch; mean nuclei count: higher = more cells remaining
Rule for the call: 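Called active when the migration ratio is 0.6 or lower (impaired) or 1.3 or higher (accelerated), but inactive whenever the mean nuclei count falls under 3300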
Meaning of the calls: active = migration changed (impaired or accelerated); inactive = no migration change, or too few cells
Shown is a random part of about 2,000 deposited reagents. Over the whole deposit, 549 (27%) were called active. 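Some migration ratios are negative; siRNAs with too few cells are inactive whatever their migration ratio.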 Reagents against one gene are numbered here. Further read-outs or replicates are left out here. The record does not give: the time to read-out.

{"Gene": "RBMY1A1 (RNA binding motif protein Y-linked family 1 member A1)", "reagent no.": 1, "migration relative to mock": 0.94, "mean nuclei count": 5968, "outcome": "inactive"}
{"Gene": "RBMY1A1 (RNA binding motif protein Y-linked family 1 member A1)", "reagent no.": 2, "migration relative to mock": 0.76, "mean nuclei count": 5471, "outcome": "inactive"}
{"Gene": "RBMY1A1 (RNA binding motif protein Y-linked family 1 member A1)", "reagent no.": 3, "migration relative to mock": 1.19, "mean nuclei count": 5124, "outcome": "inactive"}
{"Gene": "RBMY1A1 (RNA binding motif protein Y-linked family 1 member A1)", "reagent no.": 4, "migration relative to mock": 0.9, "mean nuclei count": 5218, "outcome": "inactive"}
{"Gene": "GJC3 (gap junction protein gamma 3)", "reagent no.": 1, "migration relative to mock": 0.98, "mean nuclei count": 5730, "outcome": "inactive"}
{"Gene": "GJC3 (gap junction protein gamma 3)", "reagent no.": 2, "migration relative to mock": 0.52, "mean nuclei count": 4167, "outcome": "active"}
{"Gene": "GJC3 (gap junction protein gamma 3)", "reagent no.": 3, "migration relative to mock": 0.86, "mean nuclei count": 5646, "outcome": "inactive"}
{"Gene": "GJC3 (gap junction protein gamma 3)", "reagent no.": 4, "migration relative to mock": 0.92, "mean nuclei count": 4752, "outcome": "inactive"}
{"Gene": "RHOG (ras homolog family member G)", "reagent no.": 1, "migration relative to mock": 0.82, "mean nuclei count": 6109, "outcome": "inactive"}
{"Gene": "RHOG (ras homolog family member G)", "reagent no.": 2, "migration relative to mock": 0.71, "mean nuclei count": 5150, "outcome": "inactive"}
{"Gene": "RHOG (ras homolog family member G)", "reagent no.": 3, "migration relative to mock": 0.8, "mean nuclei count": 5824, "outcome": "inactive"}
{"Gene": "RHOG (ras homolog family member G)", "reagent no.": 4, "migration relative to mock": 0.38, "mean nuclei count": 5406, "outcome": "active"}
{"Gene": "SMURF2 (SMAD specific E3 ubiquitin protein ligase 2)", "reagent no.": 1, "migration relative to mock": 0.55, "mean nuclei count": 5172, "outcome": "active"}
{"Gene": "SMURF2 (SMAD specific E3 ubiquitin protein ligase 2)", "reagent no.": 2, "migration relative to mock": 0.45, "mean nuclei count": 4914, "outcome": "active"}
{"Gene": "SMURF2 (SMAD specific E3 ubiquitin protein ligase 2)", "reagent no.": 3, "migration relative to mock": 0.76, "mean nuclei count": 6070, "outcome": "inactive"}
{"Gene": "SMURF2 (SMAD specific E3 ubiquitin protein ligase 2)", "reagent no.": 4, "migration relative to mock": 0.98, "mean nuclei count": 5900, "outcome": "inactive"}
{"Gene": "PHKG2 (phosphorylase kinase catalytic subunit gamma 2)", "reagent no.": 1, "migration relative to mock": 0.84, "mean nuclei count": 6486, "outcome": "inactive"}
{"Gene": "PHKG2 (phosphorylase kinase catalytic subunit gamma 2)", "reagent no.": 2, "migration relative to mock": 0.7, "mean nuclei count": 6239, "outcome": "inactive"}
{"Gene": "PHKG2 (phosphorylase kinase catalytic subunit gamma 2)", "reagent no.": 3, "migration relative to mock": 0.94, "mean nuclei count": 6010, "outcome": "inactive"}
{"Gene": "PHKG2 (phosphorylase kinase catalytic subunit gamma 2)", "reagent no.": 4, "migration relative to mock": 0.92, "mean nuclei count": 6080, "outcome": "inactive"}
{"Gene": "CNKSR1 (connector enhancer of kinase suppressor of Ras 1)", "reagent no.": 1, "migration relative to mock": 0.68, "mean nuclei count": 6046, "outcome": "inactive"}
{"Gene": "CNKSR1 (connector enhancer of kinase suppressor of Ras 1)", "reagent no.": 2, "migration relative to mock": 0.34, "mean nuclei count": 3586, "outcome": "active"}
{"Gene": "CNKSR1 (connector enhancer of kinase suppressor of Ras 1)", "reagent no.": 3, "migration relative to mock": 0.72, "mean nuclei count": 5140, "outcome": "inactive"}
{"Gene": "CNKSR1 (connector enhancer of kinase suppressor of Ras 1)", "reagent no.": 4, "migration relative to mock": 0.15, "mean nuclei count": 4135, "outcome": "active"}

Entries listed so far whose gene name begins with C or c (4):
{"Gene": "CNKSR1 (connector enhancer of kinase suppressor of Ras 1)", "reagent no.": 1, "migration relative to mock": 0.68, "mean nuclei count": 6046, "outcome": "inactive"}
{"Gene": "CNKSR1 (connector enhancer of kinase suppressor of Ras 1)", "reagent no.": 2, "migration relative to mock": 0.34, "mean nuclei count": 3586, "outcome": "active"}
{"Gene": "CNKSR1 (connector enhancer of kinase suppressor of Ras 1)", "reagent no.": 3, "migration relative to mock": 0.72, "mean nuclei count": 5140, "outcome": "inactive"}
{"Gene": "CNKSR1 (connector enhancer of kinase suppressor of Ras 1)", "reagent no.": 4, "migration relative to mock": 0.15, "mean nuclei count": 4135, "outcome": "active"}
